Results deposited as PubChem BioAssay AID1259405 (NCATS, 2018)
Shown is an unselected part of about 50,000 deposited reagents. Of all reagents, about 4,000 (8%) are marked active. 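Mouse siRNA library applied to hamster cells; one well for each siRNA.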 Entries without a mark were called inactive. Reagents against one gene are numbered here. Further read-outs or replicates are left out here.

- Test: 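Silenced genes that increase secreted GFP made by CHO cells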 (primary screen)
- Cell system: Chinese hamster CHO-K1 ovary cells with stable secreted eGFP expression
- Reagents: single siRNA against mouse genes, 0.8 pmol siRNA per well (2 µl of 400 nM stock)
- Duration: 3 days
- Read-out: 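Percent of the per-plate non-targeting control median for intracellular GFP per well by laser scanning cytometry and for cell viability by ATP luminescence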
- Direction: GFP, % of control: higher = more GFP per well, higher productivity
- Active means: 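Called active when intracellular GFP, relative to negative control, is at or above 120%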

GFP, % of control, by target and reagent
Vmac: #1 60.1; #2 72.5; #3 40.2
Higd1a (HIG1 domain family, member 1A): #1 71.4; #2 79.9; #3 78.4
Vmn1r51 (vomeronasal 1 receptor 51): #1 64.7; #2 64.6; #3 73.6
Mrpl9 (mitochondrial ribosomal protein L9): #1 62.5; #2 75.7; #3 52.6
Gp9 (glycoprotein 9 platelet): #1 145 (active); #2 56
Ube2q2 (ubiquitin-conjugating enzyme E2Q family member 2): #1 69.9; #2 85.1; #3 92.1
Atf7ip (activating transcription factor 7 interacting protein): #1 140 (active); #2 72.5; #3 49.9
Rnase4 (ribonuclease, RNase A family 4): #1 48; #2 83.5; #3 64.8
Lix1 (limb and CNS expressed 1): #1 70.4; #2 54.9; #3 55.6
Spsb2 (splA/ryanodine receptor domain and SOCS box containing 2): #1 90.6; #2 74.6
Spred3 (sprouty-related EVH1 domain containing 3): #1 183 (active); #2 86.9; #3 60.6
Or5b106 (olfactory receptor family 5 subfamily B member 106): #1 86.9; #2 76.2; #3 55.1
Tgm3 (transglutaminase 3, E polypeptide): #1 95.9; #2 75.6; #3 84.3
Nobox (NOBOX oogenesis homeobox): #1 132 (active); #2 46.8
Sh2d1a (SH2 domain containing 1A): #1 68.8; #2 79.6; #3 107

14 of these entries in another layout.
target,reagent,"GFP, % of control"
Ube2q2 (ubiquitin-conjugating enzyme E2Q family member 2),2,85.1
Ube2q2 (ubiquitin-conjugating enzyme E2Q family member 2),3,92.1
Atf7ip (activating transcription factor 7 interacting protein),1,140 (active)
Atf7ip (activating transcription factor 7 interacting protein),2,72.5
Atf7ip (activating transcription factor 7 interacting protein),3,49.9
"Rnase4 (ribonuclease, RNase A family 4)",1,48
"Rnase4 (ribonuclease, RNase A family 4)",2,83.5
"Rnase4 (ribonuclease, RNase A family 4)",3,64.8
Lix1 (limb and CNS expressed 1),1,70.4
Lix1 (limb and CNS expressed 1),2,54.9
Lix1 (limb and CNS expressed 1),3,55.6
Spsb2 (splA/ryanodine receptor domain and SOCS box containing 2),1,90.6
Spsb2 (splA/ryanodine receptor domain and SOCS box containing 2),2,74.6
Spred3 (sprouty-related EVH1 domain containing 3),1,183 (active)

Additional records follow:
GFP, % of control, by target and reagent
Bbc3 (BCL2 binding component 3): #1 102; #2 86.9; #3 110
Suz12 (SUZ12 polycomb repressive complex 2 subunit): #1 90.8; #2 99.8; #3 112
Lpcat3 (lysophosphatidylcholine acyltransferase 3): #1 65; #2 95
Krt86 (keratin 86): #1 74.1; #2 45.9
Ifitm2 (interferon induced transmembrane protein 2): #1 60.6; #2 95.9; #3 81.2
Bckdk (branched chain ketoacid dehydrogenase kinase): #1 82.9
Pnck (pregnancy upregulated non-ubiquitously expressed CaM kinase): #1 50.9; #2 46.8; #3 71.1
Ppie (peptidylprolyl isomerase E (cyclophilin E)): #1 95.2; #2 43.6; #3 18.7
Mgll (monoglyceride lipase): #1 53.8; #2 100; #3 50.9
Kcnn4: #1 98.6; #2 71.6; #3 82.9
Samd4b (sterile alpha motif domain containing 4B): #1 66.4; #2 69.9; #3 109
Zfand6 (zinc finger, AN1-type domain 6): #1 49; #2 61.8
Kmt5a (lysine methyltransferase 5A): #1 95.9; #2 113; #3 67.7
Chchd3 (coiled-coil-helix-coiled-coil-helix domain containing 3): #1 69.9; #2 117; #3 106
Gabrg2 (gamma-aminobutyric acid type A receptor, subunit gamma 2): #1 63.7; #2 61.7; #3 66.6
Ap1s2 (adaptor-related protein complex 1, sigma 2 subunit): #1 41.9; #2 43.3; #3 81.8
Clcn1 (chloride channel, voltage-sensitive 1): #1 94.3; #2 195 (active); #3 43.2
Aldh4a1 (aldehyde dehydrogenase 4 family, member A1): #1 115; #2 65.1; #3 109
Clip1 (CAP-GLY domain containing linker protein 1): #1 70.3; #2 76.3
Cngb3 (cyclic nucleotide gated channel beta 3): #1 93.8; #2 66.8; #3 78.5
Or5t16 (olfactory receptor family 5 subfamily T member 16): #1 91; #2 73.8; #3 68.4
Strn3 (striatin, calmodulin binding protein 3): #1 53.5; #2 73.2; #3 164 (active)
Cpa2 (carboxypeptidase A2, pancreatic): #1 97.2; #2 39.4; #3 80.2
Slc24a4: #1 74.2; #2 127 (active); #3 80.1
